{
  "source": "PubChem BioAssay AID493014",
  "about": "(National Center for Advancing Translational Sciences (NCATS), 2011)",
  "note": "The campaign covered roughly 340,000 compounds. About 170 (0.05%) were called active. The inconclusive results got no clear call from the source; some entries with a clear call stand among them for comparison. Calls follow the shape of the dose curve; as a rule, active = well fitted inhibition curve with a large enough effect in the signal ratio, with a control signal flat (not every such curve was filed as active); inconclusive = small, poorly fitted or top-dose-only effect, or effect the other way, or a change in a side signal; inactive = flat fitted curve, though single readings scatter; the % refers to the signal ratio. A potency beside an inconclusive call is a rough fit, not a confirmed value. Potency is read from the fitted curve at half-maximal effect.",
  "data": [
    {"experiment": "qHTS Assay to Find Inhibitors of Chronic Active B-Cell Receptor Signaling;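 as to activity change, negative = inhibition: plate controls were basal doxycycline-induced cells for no effect and cells given 10 µM MG132 for full effect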", "conditions": "ABC-DLBCL IkBa-CBG/CBR reporter, luminescence ratio (green luciferase fused to IkBa over red control in TMD8 lymphoma cells), 4 h; activity change, negative = inhibition: at 46.1 µM (top of the series) unless noted", "outline": "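TMD8 ABC-DLBCL cells carrying doxycycline-inducible green luciferase fused to IkappaBalpha plus unfused red luciferase were exposed to compounds (up to 46 uM) for 4 hrs at 37C. Activity came from the overlap-corrected green/red luminescence ratio.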", "values": [
      {"smiles": "COCCN(CC(=O)NCc1ccc(F)cc1)C(=O)CCC(=O)Nc1nccs1", "activity change, negative = inhibition": "inconclusive: -11.3%"},
      {"smiles": "O=c1cc(CSc2n[nH]c(-c3ccncc3)n2)nc2sccn12", "activity change, negative = inhibition": "inactive: -2.74%"},
      {"smiles": "CCCOc1cccc(NC(=O)OC2CCN(C)CC2)c1", "activity change, negative = inhibition": "inactive: 2.71%"},
      {"smiles": "COc1ccc(N2CCN(C(=O)CNC(=O)c3cn(-c4ccccc4OC)c(=O)c4ccccc34)CC2)cc1", "activity change, negative = inhibition": "inconclusive: 3.69%"},
      {"smiles": "Cc1oncc1-c1csc(-c2ccccc2Cl)n1", "activity change, negative = inhibition": "inactive: -10.4%"},
      {"smiles": "CC(C)Sc1oc(-c2ccco2)nc1S(=O)(=O)c1ccc(F)cc1", "Potency": "inconclusive: 13 µM [activator, partial curve, poor fit]"},
      {"smiles": "N/C(=N\\OC(=O)/C=C/c1ccccc1)c1ccccc1", "Potency": "inconclusive: 4.61 µM [falling, partial curve]"},
      {"smiles": "O=C(NCc1cccc(C(F)(F)F)c1)N1CCN(C(=O)c2ccccc2)CC1", "activity change, negative = inhibition": "inconclusive: 1.42%"},
      {"smiles": "Cn1cc(CN2CCC(CO)(CCCc3ccccc3)CC2)c(-c2ccccc2)n1", "activity change, negative = inhibition": "inconclusive: -0.147%"},
      {"smiles": "O=C(O)[C@H]1CCCN1S(=O)(=O)c1cccc2cccnc12", "activity change, negative = inhibition": "inconclusive: 14%"},
      {"smiles": "Cc1ccccc1-n1c(-c2ccc3ccccc3n2)n[nH]c1=S", "Potency": "inconclusive: 14.1 µM [falling, partial curve]"},
      {"smiles": "Cc1ccc(CNS(=O)(=O)c2c(C)[nH]c(=O)[nH]c2=O)cc1", "activity change, negative = inhibition": "inconclusive: 1.24%"},
      {"smiles": "CCOc1cc(/C=C2\\SC(=N)N(c3nonc3N)C2=O)ccc1OCCN1CCOCC1", "activity change, negative = inhibition": "inactive: 16.6%"},
      {"smiles": "O=C(/C=C\\N1CCOCC1)c1ccc(Br)cc1", "activity change, negative = inhibition": "inactive: 0.306%"},
      {"smiles": "Cc1cccc(-c2noc(Cc3ccc(Cl)cc3)n2)c1", "activity change, negative = inhibition": "inconclusive: 15.1%"},
      {"smiles": "C=C(C)C1Cc2c(C)nn(-c3ccccn3)c2C1", "note": "(stereo not given)", "activity change, negative = inhibition": "inactive: 15.7%"},
      {"smiles": "COc1cc(C(c2c(C)[nH][nH]c2=O)c2c(C)[nH][nH]c2=O)ccc1OC(C)C", "activity change, negative = inhibition": "inconclusive: -17.4%"},
      {"smiles": "Cc1ccc(CNC(=O)CCS(=O)(=O)c2cc3c(cc2C)NC(=O)CO3)cc1", "activity change, negative = inhibition": "inactive: 4.66%"},
      {"smiles": "CN(C)c1ccc(/C=c2\\sc3n(c2=O)CCCN=3)cc1", "Potency": "inconclusive: 5.17 µM [falling, full curve]"},
      {"smiles": "CC(C)OC(=O)c1cc2c(ccn2C)n1CC(=O)N(Cc1ccccc1)c1ccc(F)cc1", "activity change, negative = inhibition": "inconclusive: 19.2%"},
      {"smiles": "Cc1ccc(C)c(C(=O)CN2C(=O)NC3(CCCCCCC3)C2=O)c1", "activity change, negative = inhibition": "inactive: 8.84%"},
      {"smiles": "CNC(=O)c1sc(-c2ccccc2)nc1C", "activity change, negative = inhibition": "inconclusive: 25.4%"},
      {"smiles": "O=C(Nc1nc2c(s1)C(=O)CCC2)c1ccccc1", "Potency": "inconclusive: 12.6 µM [falling, partial curve]"},
      {"smiles": "O=C1NC(=Nc2ccc(O)cc2)S/C1=C\\C=C\\c1ccco1", "Potency": "inconclusive: 2.51 µM [falling, full curve, poor fit]"},
      {"smiles": "Fc1ccccc1NC(=S)Nn1cnnc1", "Potency": "inconclusive: 22.4 µM [falling, partial curve, poor fit]"},
      {"smiles": "O=C1N/C(=C/c2ccc(N3CCOCC3)cc2)C(=O)N1Cc1ccc(F)cc1", "activity change, negative = inhibition": "inconclusive: 2.4%"},
      {"smiles": "COc1ccccc1C(=O)Nc1c(C(=O)N2CCN(C)CC2)oc2ccccc12", "activity change, negative = inhibition": "inactive: -1.78%"},
      {"smiles": "Cc1csc2nc(CNS(=O)(=O)N(C)C)cn12", "activity change, negative = inhibition": "inactive: 2.28%"},
      {"smiles": "COC(=O)Cc1ccc(N(Cc2ccccc2F)S(=O)(=O)c2ccc(Cl)cc2)cc1", "activity change, negative = inhibition": "inactive: 7.17%"},
      {"smiles": "COc1ccc(S(=O)(=O)N2CCOC23CCN(C(=O)c2c(F)cccc2Cl)CC3)cc1", "activity change, negative = inhibition": "inconclusive: -6.67%"},
      {"smiles": "Cc1ccc(NC(=O)c2sc3nc(C)cc(C)c3c2N)cc1", "activity change, negative = inhibition": "inconclusive: -2.53%"},
      {"smiles": "O=C(NCCN1CCCC1=O)C1CCC(=O)N(CCc2cccc(F)c2)C1", "note": "(stereo not given)", "activity change, negative = inhibition": "inconclusive: 0.678%"},
      {"smiles": "CC1(C)O[C@@H]2[C@@H](CO[C@@]3(COS(N)(=O)=O)OC(C)(C)O[C@@H]23)O1", "activity change, negative = inhibition": "inactive: 1.05%"},
      {"smiles": "O=C(Nc1ccc2c(c1)CCC2)c1cc(S(=O)(=O)Nc2ccc(F)cc2)c(Cl)cc1Cl", "activity change, negative = inhibition": "inactive: 5.73%"},
      {"smiles": "O=[N+]([O-])c1ccc2nc(SCc3ccccc3Cl)sc2c1", "activity change, negative = inhibition": "inconclusive: 18.2%"},
      {"smiles": "COc1cc2ccc(=O)oc2cc1O", "activity change, negative = inhibition": "inactive: 7.18%"},
      {"smiles": "O=C(Nc1cccc(C(F)(F)F)c1)c1cccnn1", "activity change, negative = inhibition": "inconclusive: 2.72%"},
      {"smiles": "CCCS(=O)(=O)NCc1cn2cccc(C)c2n1", "activity change, negative = inhibition": "inactive: 4.81%"},
      {"smiles": "Cn1c(=O)c2c(nc(N3CCCCCC3)n2CCSc2nc3ccccc3o2)n(C)c1=O", "activity change, negative = inhibition": "inactive: 1.49%"},
      {"smiles": "Cc1onc(-c2ccccc2)c1C(=O)NC(=S)NNC(=O)c1cccnc1", "Potency": "inconclusive: 32.6 µM [falling, single point]"},
      {"smiles": "O=C(Nc1cccc(F)c1)c1c(F)c(F)c(F)c(F)c1F", "activity change, negative = inhibition": "inconclusive: 2.68%"},
      {"smiles": "O=C(O)CCC(=O)N1CCc2cc(S(=O)(=O)N3CCN(c4ccc(F)cc4)CC3)ccc21", "Potency": "inconclusive: 6.51 µM [rising, partial curve, poor fit]"},
      {"smiles": "Cc1ccc(OCc2nc(-c3ccccn3)no2)c(Br)c1", "Potency": "inconclusive: 35.5 µM [falling, single point]"},
      {"smiles": "CCN1C(=O)C(O)(CC(=O)/C=C/C=C/c2ccccc2)c2ccccc21", "note": "(stereo not given)", "activity change, negative = inhibition": "inconclusive: -23.1%"},
      {"smiles": "COc1ccccc1OC[C@H](O)CO", "activity change, negative = inhibition": "inactive: -22.7%"},
      {"smiles": "NNC(=O)c1cc(-c2ccco2)[nH]n1", "activity change, negative = inhibition": "inconclusive: -1.7%"},
      {"smiles": "COc1ccccc1C(=O)NC(=O)COc1ccc(Cl)cc1Cl", "activity change, negative = inhibition": "inconclusive: 16.3%"},
      {"smiles": "CCc1ccccc1N1C(=O)C2CC=CCC2C1=O", "note": "(stereo not given)", "activity change, negative = inhibition": "inactive: -0.507%"},
      {"smiles": "COc1ccc(Cn2c(=O)n(-c3ccc(OC)cc3)c(=O)c3c2c2cc(OC)ccc2n3C)cc1", "activity change, negative = inhibition": "inconclusive: 6.4%"},
      {"smiles": "O=C(c1cc(-c2ccc3c(c2)OCO3)on1)N1CCOCC1", "Potency": "inconclusive: 20.6 µM [falling, single point]"},
      {"smiles": "O=C(O)CN1C(=O)/C(=C/c2ccc(SCc3ccccc3)o2)SC1=S", "activity change, negative = inhibition": "inconclusive: 30% [cytotoxic]"},
      {"smiles": "CC(C)S(=O)(=O)c1csc(C(=O)Nc2ccc(F)cc2)c1N", "activity change, negative = inhibition": "inconclusive: 0.159%"},
      {"smiles": "Clc1ccc(-c2cc3ccccc3[nH]2)cc1", "activity change, negative = inhibition": "inconclusive: 8.52%"},
      {"smiles": "CN(C)CCCN(C(=O)c1cccc(N2C(=O)CCC2=O)c1)c1nc2cc3c(cc2s1)OCO3", "Potency": "inconclusive: 7.08 µM [falling, partial curve]"},
      {"smiles": "COc1cccc(C(=O)NCCOc2cc(C)cc(C)c2)c1", "activity change, negative = inhibition": "inconclusive: 2.09%"}
    ]}
  ]
}
